The list shows a part of the results.
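Note: competitive chemoproteomic profiling in live THP-1 cells with an iodoacetamide desthiobiotin (IA-DTB) probe, comparing probe-labelled peptide intensities in compound-treated cells against DMSO-treated controls.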

Protein sequences, listed by entry. Tags and fused reporters are not part of them. Lines headed by an entry give the natural chain unless they say otherwise; changes in a name come on top.
UniProt P50583: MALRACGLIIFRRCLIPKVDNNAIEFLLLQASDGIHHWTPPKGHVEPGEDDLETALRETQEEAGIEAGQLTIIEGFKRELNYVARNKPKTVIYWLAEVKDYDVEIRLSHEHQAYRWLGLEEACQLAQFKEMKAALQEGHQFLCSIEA
UniProt Q9Y5Y2: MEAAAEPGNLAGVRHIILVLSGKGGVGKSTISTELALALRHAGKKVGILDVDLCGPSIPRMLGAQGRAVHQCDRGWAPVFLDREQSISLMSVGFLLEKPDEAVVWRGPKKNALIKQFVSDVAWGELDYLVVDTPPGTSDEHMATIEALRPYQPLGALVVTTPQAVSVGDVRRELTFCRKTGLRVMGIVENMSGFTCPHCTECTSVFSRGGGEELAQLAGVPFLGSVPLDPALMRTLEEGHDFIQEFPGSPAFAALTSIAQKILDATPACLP
UniProt P53384: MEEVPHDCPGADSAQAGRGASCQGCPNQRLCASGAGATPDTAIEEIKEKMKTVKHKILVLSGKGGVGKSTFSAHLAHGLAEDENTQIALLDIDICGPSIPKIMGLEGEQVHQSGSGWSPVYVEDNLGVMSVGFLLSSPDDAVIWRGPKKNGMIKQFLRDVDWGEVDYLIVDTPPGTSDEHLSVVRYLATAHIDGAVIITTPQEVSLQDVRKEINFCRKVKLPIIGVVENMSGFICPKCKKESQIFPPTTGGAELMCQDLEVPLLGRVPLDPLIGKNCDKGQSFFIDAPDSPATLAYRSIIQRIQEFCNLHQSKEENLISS
UniProt Q99567: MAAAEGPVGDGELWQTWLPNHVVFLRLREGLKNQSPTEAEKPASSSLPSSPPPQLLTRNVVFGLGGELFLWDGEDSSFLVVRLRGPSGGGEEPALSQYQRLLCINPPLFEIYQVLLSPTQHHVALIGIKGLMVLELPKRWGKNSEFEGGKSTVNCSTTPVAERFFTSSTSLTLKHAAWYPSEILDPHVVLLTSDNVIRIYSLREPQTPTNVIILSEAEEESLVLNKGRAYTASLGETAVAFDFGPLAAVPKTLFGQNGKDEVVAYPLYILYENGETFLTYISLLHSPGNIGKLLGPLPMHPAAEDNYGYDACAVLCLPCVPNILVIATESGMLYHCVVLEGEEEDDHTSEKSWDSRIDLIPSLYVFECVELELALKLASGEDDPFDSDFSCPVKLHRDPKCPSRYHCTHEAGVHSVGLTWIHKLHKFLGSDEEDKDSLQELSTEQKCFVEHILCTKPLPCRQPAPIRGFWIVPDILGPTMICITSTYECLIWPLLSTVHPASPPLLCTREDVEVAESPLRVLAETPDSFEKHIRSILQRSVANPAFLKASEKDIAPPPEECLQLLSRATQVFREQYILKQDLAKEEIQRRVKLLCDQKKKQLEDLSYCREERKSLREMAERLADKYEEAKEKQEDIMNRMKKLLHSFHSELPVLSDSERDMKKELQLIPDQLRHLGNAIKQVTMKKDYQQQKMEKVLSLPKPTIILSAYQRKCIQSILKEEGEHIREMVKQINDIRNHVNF
UniProt O60502: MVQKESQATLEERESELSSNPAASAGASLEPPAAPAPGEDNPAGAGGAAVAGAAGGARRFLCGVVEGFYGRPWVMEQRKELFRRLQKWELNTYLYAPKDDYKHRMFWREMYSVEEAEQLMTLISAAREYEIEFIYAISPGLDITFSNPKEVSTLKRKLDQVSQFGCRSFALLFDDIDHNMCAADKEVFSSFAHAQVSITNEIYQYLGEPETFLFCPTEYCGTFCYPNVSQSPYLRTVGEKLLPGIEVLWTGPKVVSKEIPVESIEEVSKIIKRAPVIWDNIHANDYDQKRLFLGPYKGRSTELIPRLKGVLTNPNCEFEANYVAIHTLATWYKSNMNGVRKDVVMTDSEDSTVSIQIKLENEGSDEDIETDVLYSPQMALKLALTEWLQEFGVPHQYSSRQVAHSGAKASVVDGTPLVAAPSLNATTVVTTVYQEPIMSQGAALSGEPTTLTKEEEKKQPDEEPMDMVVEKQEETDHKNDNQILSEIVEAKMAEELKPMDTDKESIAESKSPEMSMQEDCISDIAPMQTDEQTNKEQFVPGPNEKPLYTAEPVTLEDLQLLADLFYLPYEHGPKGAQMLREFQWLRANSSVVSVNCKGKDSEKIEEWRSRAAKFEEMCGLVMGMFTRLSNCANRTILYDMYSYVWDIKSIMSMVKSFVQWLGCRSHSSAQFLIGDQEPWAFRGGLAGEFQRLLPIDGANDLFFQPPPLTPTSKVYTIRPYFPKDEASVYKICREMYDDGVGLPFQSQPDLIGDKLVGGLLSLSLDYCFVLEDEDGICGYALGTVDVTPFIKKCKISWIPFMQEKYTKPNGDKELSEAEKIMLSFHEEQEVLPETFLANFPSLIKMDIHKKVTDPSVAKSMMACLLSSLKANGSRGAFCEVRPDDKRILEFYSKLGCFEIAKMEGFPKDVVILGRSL
UniProt Q14980: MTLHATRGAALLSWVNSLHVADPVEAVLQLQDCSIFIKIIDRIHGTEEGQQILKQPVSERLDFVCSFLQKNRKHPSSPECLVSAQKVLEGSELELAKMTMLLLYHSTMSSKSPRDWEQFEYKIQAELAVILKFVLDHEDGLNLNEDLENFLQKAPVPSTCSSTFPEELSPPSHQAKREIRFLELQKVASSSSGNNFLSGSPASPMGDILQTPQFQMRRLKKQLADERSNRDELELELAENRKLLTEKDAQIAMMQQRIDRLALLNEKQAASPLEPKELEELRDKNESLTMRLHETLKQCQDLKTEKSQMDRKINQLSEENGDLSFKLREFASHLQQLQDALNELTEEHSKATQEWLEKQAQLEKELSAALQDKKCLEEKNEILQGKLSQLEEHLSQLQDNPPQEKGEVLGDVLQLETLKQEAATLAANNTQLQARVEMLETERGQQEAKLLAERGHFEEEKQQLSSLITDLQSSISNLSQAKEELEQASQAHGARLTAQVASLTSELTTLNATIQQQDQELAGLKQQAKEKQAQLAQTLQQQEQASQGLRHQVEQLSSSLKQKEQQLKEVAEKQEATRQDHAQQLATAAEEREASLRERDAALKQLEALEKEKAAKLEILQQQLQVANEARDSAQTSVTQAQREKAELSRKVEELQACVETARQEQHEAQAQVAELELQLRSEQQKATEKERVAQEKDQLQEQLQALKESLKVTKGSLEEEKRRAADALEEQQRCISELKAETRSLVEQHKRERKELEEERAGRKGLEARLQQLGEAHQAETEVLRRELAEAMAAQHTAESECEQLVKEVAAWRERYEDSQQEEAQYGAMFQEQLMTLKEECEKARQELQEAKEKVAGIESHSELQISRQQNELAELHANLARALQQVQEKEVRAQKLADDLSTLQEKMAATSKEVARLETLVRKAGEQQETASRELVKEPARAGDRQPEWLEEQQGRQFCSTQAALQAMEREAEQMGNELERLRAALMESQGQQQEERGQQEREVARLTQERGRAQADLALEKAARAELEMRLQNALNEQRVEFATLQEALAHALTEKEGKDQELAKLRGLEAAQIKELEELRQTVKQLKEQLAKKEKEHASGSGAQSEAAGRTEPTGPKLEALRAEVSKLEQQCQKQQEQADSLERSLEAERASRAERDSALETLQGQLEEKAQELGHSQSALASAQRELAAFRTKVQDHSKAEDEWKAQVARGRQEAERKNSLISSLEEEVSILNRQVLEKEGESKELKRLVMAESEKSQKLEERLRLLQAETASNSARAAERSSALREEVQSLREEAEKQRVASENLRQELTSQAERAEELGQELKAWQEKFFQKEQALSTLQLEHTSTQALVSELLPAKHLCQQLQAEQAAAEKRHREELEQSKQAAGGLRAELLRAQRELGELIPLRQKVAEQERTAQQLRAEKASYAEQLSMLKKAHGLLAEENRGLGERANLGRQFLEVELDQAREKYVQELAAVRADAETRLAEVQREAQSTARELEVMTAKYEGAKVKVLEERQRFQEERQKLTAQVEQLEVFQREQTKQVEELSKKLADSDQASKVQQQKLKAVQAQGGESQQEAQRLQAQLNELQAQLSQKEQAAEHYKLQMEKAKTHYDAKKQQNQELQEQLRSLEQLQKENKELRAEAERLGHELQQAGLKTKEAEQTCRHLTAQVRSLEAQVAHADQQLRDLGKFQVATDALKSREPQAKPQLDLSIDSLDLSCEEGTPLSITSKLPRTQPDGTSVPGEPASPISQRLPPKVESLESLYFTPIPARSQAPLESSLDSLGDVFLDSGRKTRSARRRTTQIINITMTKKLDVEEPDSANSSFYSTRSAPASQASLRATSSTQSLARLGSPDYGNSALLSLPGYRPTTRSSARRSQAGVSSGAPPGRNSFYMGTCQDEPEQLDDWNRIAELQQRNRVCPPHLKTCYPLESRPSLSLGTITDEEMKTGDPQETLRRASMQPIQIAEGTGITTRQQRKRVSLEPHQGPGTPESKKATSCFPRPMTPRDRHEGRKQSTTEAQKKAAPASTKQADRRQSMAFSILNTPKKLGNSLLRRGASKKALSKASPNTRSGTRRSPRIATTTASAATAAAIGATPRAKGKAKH
UniProt O75694: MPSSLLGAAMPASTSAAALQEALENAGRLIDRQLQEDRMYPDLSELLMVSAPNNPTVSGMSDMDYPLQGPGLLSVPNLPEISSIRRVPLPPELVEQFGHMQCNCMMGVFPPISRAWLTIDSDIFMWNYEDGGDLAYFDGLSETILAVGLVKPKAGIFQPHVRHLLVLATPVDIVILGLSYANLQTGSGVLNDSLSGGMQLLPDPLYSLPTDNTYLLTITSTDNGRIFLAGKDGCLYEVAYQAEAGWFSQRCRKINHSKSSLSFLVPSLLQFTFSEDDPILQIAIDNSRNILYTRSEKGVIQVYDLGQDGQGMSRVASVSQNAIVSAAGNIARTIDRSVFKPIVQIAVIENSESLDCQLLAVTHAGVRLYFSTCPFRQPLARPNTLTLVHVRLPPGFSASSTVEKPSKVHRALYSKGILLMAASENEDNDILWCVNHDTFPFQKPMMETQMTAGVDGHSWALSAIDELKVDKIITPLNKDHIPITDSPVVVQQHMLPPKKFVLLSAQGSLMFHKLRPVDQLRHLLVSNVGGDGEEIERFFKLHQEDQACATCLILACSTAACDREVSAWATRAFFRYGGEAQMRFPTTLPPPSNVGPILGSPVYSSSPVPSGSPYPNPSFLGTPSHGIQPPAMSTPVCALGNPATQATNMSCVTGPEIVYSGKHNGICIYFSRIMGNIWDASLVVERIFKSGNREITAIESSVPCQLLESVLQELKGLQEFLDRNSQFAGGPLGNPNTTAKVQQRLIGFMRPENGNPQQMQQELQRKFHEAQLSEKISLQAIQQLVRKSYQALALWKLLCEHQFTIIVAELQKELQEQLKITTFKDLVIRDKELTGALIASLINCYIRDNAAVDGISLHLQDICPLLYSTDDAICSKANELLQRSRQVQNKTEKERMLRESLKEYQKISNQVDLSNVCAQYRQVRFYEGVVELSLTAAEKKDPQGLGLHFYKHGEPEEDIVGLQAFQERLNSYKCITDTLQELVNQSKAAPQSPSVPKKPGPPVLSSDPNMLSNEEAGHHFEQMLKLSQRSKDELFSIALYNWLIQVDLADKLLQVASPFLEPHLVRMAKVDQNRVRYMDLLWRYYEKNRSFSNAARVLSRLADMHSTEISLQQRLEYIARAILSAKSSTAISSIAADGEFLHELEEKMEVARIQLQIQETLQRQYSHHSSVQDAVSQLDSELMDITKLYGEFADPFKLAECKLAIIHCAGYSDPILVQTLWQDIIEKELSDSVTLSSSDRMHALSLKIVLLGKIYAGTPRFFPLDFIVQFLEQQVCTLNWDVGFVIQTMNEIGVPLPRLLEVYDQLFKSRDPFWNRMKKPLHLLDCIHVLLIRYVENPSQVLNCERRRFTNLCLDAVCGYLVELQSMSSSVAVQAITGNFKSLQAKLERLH
UniProt Q6ZVK8: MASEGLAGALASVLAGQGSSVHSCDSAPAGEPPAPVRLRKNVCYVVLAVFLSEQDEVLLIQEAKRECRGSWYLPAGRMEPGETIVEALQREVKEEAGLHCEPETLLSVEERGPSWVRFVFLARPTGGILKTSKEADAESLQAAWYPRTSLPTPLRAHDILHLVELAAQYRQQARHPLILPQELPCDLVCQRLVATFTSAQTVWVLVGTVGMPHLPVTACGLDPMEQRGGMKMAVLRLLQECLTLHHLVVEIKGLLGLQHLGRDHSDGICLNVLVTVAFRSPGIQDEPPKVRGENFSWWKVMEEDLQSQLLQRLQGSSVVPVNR
UniProt Q9BV86: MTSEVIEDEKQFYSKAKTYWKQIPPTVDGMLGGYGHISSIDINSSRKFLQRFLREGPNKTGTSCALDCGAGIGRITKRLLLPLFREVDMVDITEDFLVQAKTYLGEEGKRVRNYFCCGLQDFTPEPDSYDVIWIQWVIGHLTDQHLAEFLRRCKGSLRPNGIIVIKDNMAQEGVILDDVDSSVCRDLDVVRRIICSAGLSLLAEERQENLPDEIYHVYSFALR

Compound in the first assay: CC1Cc2ccccc2N1C(=O)C1CCCN(C1)C(=O)CCl (mixture of isomers) [TRIM25 ligand 11 (diastereomer mixture)]
The assay can be described thus: probe-labelled cysteine peptide fold change vs DMSO (competition) (log2 fold change); higher = less target engagement (more negative = stronger competition). As to conditions: 10 µM; THP-1; incubation time: 4 h.
For the target “OCRL_Q01968_679_DYFLTISGNYLPSCFGTSLEALCR (UniProt Q01968)”, the “probe-labelled cysteine peptide fold change” value came out at 0.224.
Same read-out and setting: the value for “NUP160_Q12769_1166_NHDGECTAAPTNR (UniProt Q12769)” was -0.19.
With “NUDT2_P50583_123_WLGLEEACQLAQFK (UniProt P50583)”, the “probe-labelled cysteine peptide fold change” value is -0.024.
Consider “NUP50_Q9UKX7_151_ACVGNAYHK (UniProt Q9UKX7)”, for which the “probe-labelled cysteine peptide fold change” value is -0.156.
Consider “NUP160_Q12769_1042_QLVVVLCER (UniProt Q12769)”, for which the “probe-labelled cysteine peptide fold change” value is 0.25.
On the same count and under the same terms, the value for “NUBP2_Q9Y5Y2_177_RELTFCR (UniProt Q9Y5Y2)” was -0.139.
The same measure, in the same setting: for “NUP160_Q12769_369_RGQFCIFQLVSTESNR (UniProt Q12769)” the value was 0.339; for “NUBP1_P53384_25_GASCQGCPNQR (UniProt P53384)”, -0.0889.
For the target “OGDH_Q02218_604_SMSCPSTGLTEDILTHIGNVASSVPVENFTIHGGLSR (UniProt Q02218)”, the “probe-labelled cysteine peptide fold change” value worked out at 0.082.
As to “NUP210_Q8TEM1_1611_EVIQALHPETLISCQSQFK (UniProt Q8TEM1)”, the “probe-labelled cysteine peptide fold change” value is 0.167.
Regarding “OCIAD2_Q56VL3_130+137_HCLLTCEECK (UniProt Q56VL3)”, the “probe-labelled cysteine peptide fold change” value was determined as 0.126.
The same measure, in the same setting: for “NUDT7_P0C024_72_RAPGEVCFPGGK (UniProt P0C024)” the value was 0.0276; for “NUP160_Q12769_529_NLQQEFWCK (UniProt Q12769)”, 0.248.
On the same count and under the same terms, the value for “NUP93_Q8N1F7_522_SSGQSAQLLSHEPGDPPCLR (UniProt Q8N1F7)” was 0.0752; that for “NUP160_Q12769_473_EMYLQSLFTPGQFTNEALCK (UniProt Q12769)” was 0.0737.
The same measure, in the same setting: for “OGDH_Q02218_802_FLQMCNDDPDVLPDLK (UniProt Q02218)” the value was 0.202; for “NUP88_Q99567_407_YHCTHEAGVHSVGLTWIHK (UniProt Q99567)”, 0.116.
Turning to “NUP205_Q92621_141_CIANSLK (UniProt Q92621)”, the “probe-labelled cysteine peptide fold change” value worked out at 0.109.
Still for that read-out and setting: the value for “NT5DC1_Q5TFE4_62+63_ELLNVTPEDWDFCCK (UniProt Q5TFE4)” was -0.0575; that for “OBSL1_O75147_412_LKADDDGIYLCEMR (UniProt O75147)” was -0.0685; that for “OBSL1_O75147_738_VVLTCELSR (UniProt O75147)” was -0.237.
Still for that read-out and setting: for “OGA_O60502_618_FEEMCGLVMGMFTR (UniProt O60502)” the value was 0.41.
For “NUDT8_Q8WV74_71_CDPADQDVVHTALR (UniProt Q8WV74)”, the “probe-labelled cysteine peptide fold change” value worked out at 0.0494.
The same measure, in the same setting: the value for “ODC1_P11926_114_IIYANPCK (UniProt P11926)” was 0.256; that for “NUMA1_Q14980_2009_ATSCFPR (UniProt Q14980)” was -0.114; that for “NT5DC1_Q5TFE4_22_AQHFSLAACDVVGFDLDHTLCR (UniProt Q5TFE4)” was 0.000262.
The same measure, in the same setting: for “NUP155_O75694_548+551_LHQEDQACATCLILACSTAACDR (UniProt O75694)” the value was 0.0303.
The same measure, in the same setting: for “NUDT18_Q6ZVK8_100_EVKEEAGLHCEPETLLSVEER (UniProt Q6ZVK8)” the value was -0.155; for “OGFR_Q9NZT2_87_HNYPDLVERDCNGDTPNLSFYR (UniProt Q9NZT2)”, -0.212; for “NUDCD1_Q96RS6_111_EVFRLPTDLTACDNR (UniProt Q96RS6)”, -0.0867.
Take “NUS1_Q96E22_235_QKRPTDLDVDTLASLLSSNGCPDPDLVLK (UniProt Q96E22)”: the “probe-labelled cysteine peptide fold change” value is -0.332.
Same read-out and setting: for “NTMT1_Q9BV86_68_TGTSCALDCGAGIGR (UniProt Q9BV86)” the value was 0.0307; for “NVL_O15381_460_LPQAFDFCHLAHLTPGFVGADLMALCR (UniProt O15381)”, -0.219.
Same read-out and setting: for “NUP155_O75694_561_LHQEDQACATCLILACSTAACDR (UniProt O75694)” the value was 0.102.
Turning to “NUP160_Q12769_292+303_GDQSPSDRPLSLAVHCVEHDAFIFALCQDHK (UniProt Q12769)”, the “probe-labelled cysteine peptide fold change” value was found to be 0.115.
The same measure, in the same setting: the value for “NUP205_Q92621_1297_QLVEIILTACPQDLIQAEDR (UniProt Q92621)” was 0.232; that for “NTHL1_P78549_118_DAPVDHLGTEHCYDSSAPPK (UniProt P78549)” was 0.0981.

The same assay, now with this note: 50 µM; THP-1; incubation time: 4 h.
Turning to “OCRL_Q01968_679_DYFLTISGNYLPSCFGTSLEALCR (UniProt Q01968)”, the “probe-labelled cysteine peptide fold change” value is 0.149.
Still for that read-out and setting: for “NUP160_Q12769_1166_NHDGECTAAPTNR (UniProt Q12769)” the value was -0.197; for “NUDT2_P50583_123_WLGLEEACQLAQFK (UniProt P50583)”, -0.118; for “NUP50_Q9UKX7_151_ACVGNAYHK (UniProt Q9UKX7)”, -0.242.
On the same count and under the same terms, for “NUP160_Q12769_1042_QLVVVLCER (UniProt Q12769)” the value was 0.0629.
“NUBP2_Q9Y5Y2_177_RELTFCR (UniProt Q9Y5Y2)”: the “probe-labelled cysteine peptide fold change” value was 0.0028.
The same measure, in the same setting: for “NUP160_Q12769_369_RGQFCIFQLVSTESNR (UniProt Q12769)” the value was 0.0881; for “NUBP1_P53384_25_GASCQGCPNQR (UniProt P53384)”, -0.189.
As to “OGDH_Q02218_604_SMSCPSTGLTEDILTHIGNVASSVPVENFTIHGGLSR (UniProt Q02218)”, the “probe-labelled cysteine peptide fold change” value was -0.0875.
Same read-out and setting: for “NUP210_Q8TEM1_1611_EVIQALHPETLISCQSQFK (UniProt Q8TEM1)” the value was 0.35; for “OCIAD2_Q56VL3_130+137_HCLLTCEECK (UniProt Q56VL3)”, -0.0386; for “NUDT7_P0C024_72_RAPGEVCFPGGK (UniProt P0C024)”, -0.0536.
The same measure, in the same setting: the value for “NUP160_Q12769_529_NLQQEFWCK (UniProt Q12769)” was 0.177.
On the same count and under the same terms, for “NUP93_Q8N1F7_522_SSGQSAQLLSHEPGDPPCLR (UniProt Q8N1F7)” the value was -0.0115.
On to “NUP160_Q12769_473_EMYLQSLFTPGQFTNEALCK (UniProt Q12769)”, for which the “probe-labelled cysteine peptide fold change” value was -0.00751.
Same read-out and setting: the value for “OGDH_Q02218_802_FLQMCNDDPDVLPDLK (UniProt Q02218)” was -0.0151; that for “NUP88_Q99567_407_YHCTHEAGVHSVGLTWIHK (UniProt Q99567)” was -0.154.
On the same count and under the same terms, for “NUP205_Q92621_141_CIANSLK (UniProt Q92621)” the value was 0.156.
As for “NT5DC1_Q5TFE4_62+63_ELLNVTPEDWDFCCK (UniProt Q5TFE4)”, the “probe-labelled cysteine peptide fold change” value was 0.045.
Same read-out and setting: for “OBSL1_O75147_412_LKADDDGIYLCEMR (UniProt O75147)” the value was 0.0746; for “OBSL1_O75147_738_VVLTCELSR (UniProt O75147)”, 0.104.
Regarding “OGA_O60502_618_FEEMCGLVMGMFTR (UniProt O60502)”, the “probe-labelled cysteine peptide fold change” value was -0.204.
In the case of “NUDT8_Q8WV74_71_CDPADQDVVHTALR (UniProt Q8WV74)”, the “probe-labelled cysteine peptide fold change” value is 0.139.
Still for that read-out and setting: the value for “ODC1_P11926_114_IIYANPCK (UniProt P11926)” was 0.186.
On to “NUMA1_Q14980_2009_ATSCFPR (UniProt Q14980)”, for which the “probe-labelled cysteine peptide fold change” value is -0.0276.
Still for that read-out and setting: for “NT5DC1_Q5TFE4_22_AQHFSLAACDVVGFDLDHTLCR (UniProt Q5TFE4)” the value was 0.0204; for “NUP155_O75694_548+551_LHQEDQACATCLILACSTAACDR (UniProt O75694)”, 0.0895.
For “NUDT18_Q6ZVK8_100_EVKEEAGLHCEPETLLSVEER (UniProt Q6ZVK8)”, the “probe-labelled cysteine peptide fold change” value was -0.157.
Still for that read-out and setting: for “OGFR_Q9NZT2_87_HNYPDLVERDCNGDTPNLSFYR (UniProt Q9NZT2)” the value was -0.337; for “NUDCD1_Q96RS6_111_EVFRLPTDLTACDNR (UniProt Q96RS6)”, 0.0344; for “NUS1_Q96E22_235_QKRPTDLDVDTLASLLSSNGCPDPDLVLK (UniProt Q96E22)”, -0.641.
Same read-out and setting: for “NTMT1_Q9BV86_68_TGTSCALDCGAGIGR (UniProt Q9BV86)” the value was 0.126; for “NVL_O15381_460_LPQAFDFCHLAHLTPGFVGADLMALCR (UniProt O15381)”, -0.00784.
With “NUP155_O75694_561_LHQEDQACATCLILACSTAACDR (UniProt O75694)”, the “probe-labelled cysteine peptide fold change” value was 0.053.
Turning to “NUP160_Q12769_292+303_GDQSPSDRPLSLAVHCVEHDAFIFALCQDHK (UniProt Q12769)”, the “probe-labelled cysteine peptide fold change” value came to 0.203.
The same measure, in the same setting: for “NUP205_Q92621_1297_QLVEIILTACPQDLIQAEDR (UniProt Q92621)” the value was 0.0863; for “NTHL1_P78549_118_DAPVDHLGTEHCYDSSAPPK (UniProt P78549)”, 0.0312.

The record behind these values is the supplement of paper PMC12067093, “Discovery and optimisation of a covalent ligand for TRIM25 and its application to targeted protein ubiquitination” (Chemical Science, 2025).
